Results are given in words; binding and its absence hold for the method and conditions named. Binding seen in cells or lysates may run through a third protein. Some entries that bind do so weakly or less than the wild type. Tags and fused reporters may be left off the sequences shown.
Target: HA-tagged Pol2 (catalytic subunit of DNA polymerase epsilon) (budding yeast) (UniProt P21951)
Experiment: co-IP; HA-tagged Pol2 immunoprecipitated from yeast extracts, Flag-tagged Smc5 detected with anti-Flag antibody; DNase added to remove DNA before immunoprecipitation; cells treated with HU or untreated

Sequences of proteins named here, by UniProt entry; tags and fusion partners are left off.
UniProt P21951: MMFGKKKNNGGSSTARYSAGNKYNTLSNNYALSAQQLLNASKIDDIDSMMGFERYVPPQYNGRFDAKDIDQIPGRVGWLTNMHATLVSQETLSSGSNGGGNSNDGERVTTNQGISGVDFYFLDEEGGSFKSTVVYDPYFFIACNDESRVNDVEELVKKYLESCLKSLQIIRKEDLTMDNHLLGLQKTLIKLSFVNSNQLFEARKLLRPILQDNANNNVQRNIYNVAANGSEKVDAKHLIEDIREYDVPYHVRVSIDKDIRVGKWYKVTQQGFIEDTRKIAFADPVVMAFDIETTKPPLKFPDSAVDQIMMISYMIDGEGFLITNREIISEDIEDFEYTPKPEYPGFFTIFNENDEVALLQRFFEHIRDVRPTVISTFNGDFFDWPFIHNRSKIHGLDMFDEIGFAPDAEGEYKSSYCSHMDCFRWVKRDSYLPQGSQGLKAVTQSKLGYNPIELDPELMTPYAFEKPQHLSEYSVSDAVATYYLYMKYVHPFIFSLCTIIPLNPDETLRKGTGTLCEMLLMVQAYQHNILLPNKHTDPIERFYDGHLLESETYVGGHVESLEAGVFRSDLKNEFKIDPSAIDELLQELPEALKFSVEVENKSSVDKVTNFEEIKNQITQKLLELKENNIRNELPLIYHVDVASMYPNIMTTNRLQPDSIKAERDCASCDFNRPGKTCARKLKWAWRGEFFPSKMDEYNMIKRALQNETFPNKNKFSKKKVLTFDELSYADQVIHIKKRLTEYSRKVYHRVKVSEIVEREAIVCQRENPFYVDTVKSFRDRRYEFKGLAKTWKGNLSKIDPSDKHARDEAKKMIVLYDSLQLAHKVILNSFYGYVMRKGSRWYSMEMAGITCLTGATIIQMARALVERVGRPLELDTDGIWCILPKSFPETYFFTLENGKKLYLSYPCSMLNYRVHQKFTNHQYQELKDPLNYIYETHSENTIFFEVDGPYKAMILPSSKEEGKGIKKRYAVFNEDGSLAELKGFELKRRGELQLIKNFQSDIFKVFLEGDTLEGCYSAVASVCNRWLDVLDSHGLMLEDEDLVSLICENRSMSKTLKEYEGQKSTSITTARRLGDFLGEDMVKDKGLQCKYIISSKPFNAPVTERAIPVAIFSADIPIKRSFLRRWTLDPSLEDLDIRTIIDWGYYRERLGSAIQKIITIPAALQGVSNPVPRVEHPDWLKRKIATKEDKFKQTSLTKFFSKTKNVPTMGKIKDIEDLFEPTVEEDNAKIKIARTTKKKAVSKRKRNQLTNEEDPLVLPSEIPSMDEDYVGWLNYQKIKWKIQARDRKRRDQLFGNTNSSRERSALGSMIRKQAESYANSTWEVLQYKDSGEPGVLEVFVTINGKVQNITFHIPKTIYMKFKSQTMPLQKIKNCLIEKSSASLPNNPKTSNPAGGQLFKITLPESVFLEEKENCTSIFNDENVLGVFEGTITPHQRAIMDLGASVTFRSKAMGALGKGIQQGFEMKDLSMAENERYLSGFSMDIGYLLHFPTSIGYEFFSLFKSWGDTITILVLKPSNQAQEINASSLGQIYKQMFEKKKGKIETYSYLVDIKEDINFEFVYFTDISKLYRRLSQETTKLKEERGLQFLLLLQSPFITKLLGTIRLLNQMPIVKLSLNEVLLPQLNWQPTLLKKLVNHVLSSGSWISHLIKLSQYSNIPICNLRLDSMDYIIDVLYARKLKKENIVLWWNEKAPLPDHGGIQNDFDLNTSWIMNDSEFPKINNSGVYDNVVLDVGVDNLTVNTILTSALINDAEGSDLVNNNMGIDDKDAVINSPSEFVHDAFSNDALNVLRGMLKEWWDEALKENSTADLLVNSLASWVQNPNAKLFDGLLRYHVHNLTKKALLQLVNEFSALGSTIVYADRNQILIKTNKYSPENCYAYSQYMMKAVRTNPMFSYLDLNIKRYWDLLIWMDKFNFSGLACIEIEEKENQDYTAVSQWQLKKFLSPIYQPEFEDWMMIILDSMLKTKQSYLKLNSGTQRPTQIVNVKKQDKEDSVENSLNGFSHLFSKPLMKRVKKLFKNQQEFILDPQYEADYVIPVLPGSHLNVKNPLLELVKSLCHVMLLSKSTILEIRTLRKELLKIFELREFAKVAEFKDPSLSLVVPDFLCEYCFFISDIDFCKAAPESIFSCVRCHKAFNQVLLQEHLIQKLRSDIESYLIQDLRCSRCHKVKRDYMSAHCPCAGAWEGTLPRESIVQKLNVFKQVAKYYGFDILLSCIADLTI

binding: binds
B1: Flag-tagged Smc5 (subunit of the Smc5/6 complex) (protein, UniProt Q08204 1-1093)
chain: MTSLIDLGRYVERTHHGEDTEPRSKRVKIAKPDLSSFQPGSIIKIRLQDFVTYTLTEFNLSPSLNMIIGPNGSGKSTFVCAVCLGLAGKPEYIGRSKKVEDFIKNGQDVSKIEITLKNSPNVTDIEYIDARDETIKITRIITRSKRRSDYLINDYQVSESVVKTLVAQLNIQLDNLCQFLSQERVEEFARLKSVKLLVETIRSIDASLLDVLDELRELQGNEQSLQKDLDFKKAKIVHLRQESDKLRKSVESLRDFQNKKGEIELHSQLLPYVKVKDHKEKLNIYKEEYERAKANLRAILKDKKPFANTKKTLENQVEELTEKCSLKTDEFLKAKEKINEIFEKLNTIRDEVIKKKNQNEYYRGRTKKLQATIISTKEDFLRSQEILAQTHLPEKSVFEDIDIKRKEIINKEGEIRDLISEIDAKANAINHEMRSIQRQAESKTKSLTTTDKIGILNQDQDLKEVRDAVLMVREHPEMKDKILEPPIMTVSAINAQFAAYLAQCVDYNTSKALTVVDSDSYKLFANPILDKFKVNLRELSSADTTPPVPAETVRDLGFEGYLSDFITGDKRVMKMLCQTSKIHTIPVSRRELTPAQIKKLITPRPNGKILFKRIIHGNRLVDIKQSAYGSKQVFPTDVSIKQTNFYQGSIMSNEQKIRIENEIINLKNEYNDRKSTLDALSNQKSGYRHELSELASKNDDINREAHQLNEIRKKYTMRKSTIETLREKLDQLKREARKDVSQKIKDIDDQIQQLLLKQRHLLSKMASSMKSLKNCQKELISTQILQFEAQNMDVSMNDVIGFFNEREADLKSQYEDKKKFVKEMRDTPEFQSWMREIRSYDQDTKEKLNKVAEKYEEEGNFNLSFVQDVLDKLESEIAMVNHDESAVTILDQVTAELRELEHTVPQQSKDLETIKAKLKEDHAVLEPKLDDIVSKISARFARLFNNVGSAGAVRLEKPKDYAEWKIEIMVKFRDNAPLKKLDSHTQSGGERAVSTVLYMIALQEFTSAPFRVVDEINQGMDSRNERIVHKAMVENACAENTSQYFLITPKLLTGLHYHEKMRIHCVMAGSWIPNPSEDPKMIHFGETSNYSFD

From publication PMC6876774
